From patent US9216980B2, “Methods of use of diazacarbazoles for treating cancer” (Genentech, Inc., priority 2008, dated 2015)
pIC50: −log10 of the molar value. Some entries share one result that the patent states for a list of compounds.

The compounds below were run against T1, chk1 (Homo sapiens, UniProt O14757) (assay: chk1 AlphaScreen assay). Conditions: chk1 AlphaScreen or ATP radiometric assay (not specified which), 10 μM ATP, 30 minutes, 1% DMSO; read-out: IC50 in the assays described in EXAMPLE i against chk1.
T1 construct: fused on or other part: histidine tag
T1 sequence (O14757 1-476): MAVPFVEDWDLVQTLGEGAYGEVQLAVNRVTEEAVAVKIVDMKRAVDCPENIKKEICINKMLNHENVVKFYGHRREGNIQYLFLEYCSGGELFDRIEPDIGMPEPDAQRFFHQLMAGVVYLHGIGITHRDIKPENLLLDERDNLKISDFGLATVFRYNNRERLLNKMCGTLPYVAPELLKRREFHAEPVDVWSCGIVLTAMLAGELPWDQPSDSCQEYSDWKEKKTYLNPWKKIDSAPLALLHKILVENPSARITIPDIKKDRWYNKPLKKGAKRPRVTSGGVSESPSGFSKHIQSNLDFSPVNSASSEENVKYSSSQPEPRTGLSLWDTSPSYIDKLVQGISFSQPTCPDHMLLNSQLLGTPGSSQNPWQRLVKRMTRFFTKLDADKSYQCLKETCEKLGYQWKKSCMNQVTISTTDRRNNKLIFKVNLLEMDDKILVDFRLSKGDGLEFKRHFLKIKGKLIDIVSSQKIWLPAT
Format: biochemical

Question: How did the pIC50 turn out when `CSc1cccc(-c2cnc3[nH]c4cnc(C#N)cc4c3c2)c1` [Example 143, 3-(3-Methylsulfanyl-phenyl)-9H-dipyrido[2,3-b;4′,3′-d]pyrrole-6-carbonitrile] was run?
Answer: > 5.30

Question: How did the pIC50 turn out when `Cc1cc(F)cc(-c2cnc3[nH]c4cnc(C#N)cc4c3c2)c1` [Example 184, 3-(3-Fluoro-5-methyl-phenyl)-9H-dipyrido[2,3-b;4′,3′-d]pyrrole-6-carbonitrile] was run?
Answer: > 5.30

Question: With `COc1ccc(-c2cnc3[nH]c4cnc(C#N)cc4c3c2)cc1F` [Example 173, 3-(3-Fluoro-4-methoxy-phenyl)-9H-dipyrido[2,3-b;4′,3′-d]pyrrole-6-carbonitrile] as the compound, how does the pIC50 read?
Answer: > 5.30
